Laboratory results published in patent US20100183625A1, “Treatment of Mucositis with Kallikrein Inhibitors” (Dyax Corp., priority 2009, published 2010).
Results are given in words; binding and its absence hold for the method and conditions named. Some results given as binding are weak or reduced against the parent protein; the word gives no strength.

Chains of the proteins cited; added tags and fusions are not shown. Lines headed by an entry give the natural chain unless they say otherwise; changes in a name come on top.
UniProt P03952: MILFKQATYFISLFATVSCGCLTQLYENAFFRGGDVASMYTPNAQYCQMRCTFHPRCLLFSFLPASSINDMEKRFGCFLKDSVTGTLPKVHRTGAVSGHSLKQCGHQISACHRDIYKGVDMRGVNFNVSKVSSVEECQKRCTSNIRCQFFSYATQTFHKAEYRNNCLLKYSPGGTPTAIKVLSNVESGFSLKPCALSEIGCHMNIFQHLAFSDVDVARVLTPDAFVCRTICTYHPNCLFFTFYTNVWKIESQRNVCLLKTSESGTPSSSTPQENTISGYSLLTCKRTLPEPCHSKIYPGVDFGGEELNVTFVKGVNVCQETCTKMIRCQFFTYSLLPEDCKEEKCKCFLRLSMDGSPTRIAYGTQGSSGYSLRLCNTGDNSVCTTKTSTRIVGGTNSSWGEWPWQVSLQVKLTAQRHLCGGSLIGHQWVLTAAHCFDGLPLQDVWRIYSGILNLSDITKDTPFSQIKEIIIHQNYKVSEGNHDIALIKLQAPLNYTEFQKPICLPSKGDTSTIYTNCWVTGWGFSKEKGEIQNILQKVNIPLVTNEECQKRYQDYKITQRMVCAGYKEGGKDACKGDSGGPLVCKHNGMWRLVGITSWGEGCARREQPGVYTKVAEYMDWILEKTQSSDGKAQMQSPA

B1: EPI-KAL2 (designed binder)
chain: EAMHSFCAFKADDGPCRAAHPRWFFNIFTRQCEEFSYGGCGGNQNRFESLEECKKMCTRD
B2: X67-C03 (antibody, human IgG1, V domains shown)
VH: EVQLLESGGGLVQPGGSLRLSCAASGFTFSAYSMIWVRQAPGKGLEWVSYIRPSGGRTTYADSVKGRFTISRDNSKNTLYLQMNSLRAEDTAVYYCARGGLLLWMRELKSNYFDYWGQGTLVTVSS
VL: DIQMTQSPSSLSAFVGDRVTITCRASQPIDNYLNWYHQKPGKAPKLLIYAASRLQSGVPSRLSGSGFGTDFTLTISSLQPEDFGNYYCQQSYTVPYTFGGGTKVEIR

Legend:
[1] = molecular target: human plasma kallikrein (human) (UniProt P03952); assay: BIACORE SPR competition: 1 uM EPI-KAL2 with 100 nM pKal over captured X81-B01 or X67-D03 IgG
[2] = molecular target: human plasma kallikrein (human) (UniProt P03952); assay: steady state enzyme kinetics, IgG

Binder | binding [1] | binding [2]
B1 | binds | 
B2 |  | binds
